# Assay results from publication doi:10.1101/2025.03.19.643735.
# Amino acid sequences for entries named in this document (tags omitted). A change or cut given only in a name is not applied to a line headed by its entry.
# UniProt P35637: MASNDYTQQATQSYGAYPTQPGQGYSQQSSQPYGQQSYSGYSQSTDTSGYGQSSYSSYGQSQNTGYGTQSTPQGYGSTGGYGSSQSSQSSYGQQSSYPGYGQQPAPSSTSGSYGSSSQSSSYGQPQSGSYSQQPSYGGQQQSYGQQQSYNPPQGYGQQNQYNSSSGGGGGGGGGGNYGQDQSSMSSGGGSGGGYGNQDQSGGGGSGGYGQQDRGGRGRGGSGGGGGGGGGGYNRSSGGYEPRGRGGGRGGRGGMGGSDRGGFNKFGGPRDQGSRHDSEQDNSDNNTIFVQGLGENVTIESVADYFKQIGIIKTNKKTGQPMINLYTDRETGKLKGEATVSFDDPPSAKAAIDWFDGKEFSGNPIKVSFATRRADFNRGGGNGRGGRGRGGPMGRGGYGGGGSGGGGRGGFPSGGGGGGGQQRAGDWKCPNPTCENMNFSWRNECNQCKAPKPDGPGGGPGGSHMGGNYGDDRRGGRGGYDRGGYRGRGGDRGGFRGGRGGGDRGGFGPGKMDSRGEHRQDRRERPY
# Like-named read-outs stand apart in the source and are kept apart here. Results are given in words; binding and its absence hold for the method and conditions named. For some assays here: In cells and extracts the contact can be indirect. Some binding calls cover weakened binding; strength is not graded here. For some assays here: Tags and fused reporters may be left off the sequences shown.
# T1: Sbp1-mScarlet (Saccharomyces cerevisiae) (UniProt P10080)
# T1 sequence: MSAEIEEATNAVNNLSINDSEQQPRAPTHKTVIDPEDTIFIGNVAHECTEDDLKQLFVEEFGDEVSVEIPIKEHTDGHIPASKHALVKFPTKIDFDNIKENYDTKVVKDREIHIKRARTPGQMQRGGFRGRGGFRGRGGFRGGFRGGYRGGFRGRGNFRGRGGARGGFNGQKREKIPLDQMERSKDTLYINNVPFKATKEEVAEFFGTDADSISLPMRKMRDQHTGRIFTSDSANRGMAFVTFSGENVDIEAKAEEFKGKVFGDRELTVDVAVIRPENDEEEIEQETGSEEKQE
# Tests used:
# [1] = target: T1, Sbp1-mScarlet (Saccharomyces cerevisiae); assay: co-IP
# MBP-FUS-eGFP [2] = target: MBP-FUS-eGFP (UniProt P35637); assay: pull-down
# [3] = target: FUS, cleaved from MBP with TeV protease (FUS-Flag as bait and FUS-eGFP as prey) (UniProt P35637); assay: pull-down
# MBP-FUS-Flag-His = MBP-FUS-Flag-His (UniProt P35637); assay: pull-down
# MBP-FUS-eGFP [4] = target: MBP-FUS-eGFP (UniProt P35637); assay: pull-down; remark: listed apart in the source
molecule,measurement,setting,value
eGFP-FUS-P525L (from UniProt P35637 1-526),binding,[1],binds
same,binding,MBP-FUS-eGFP [2],binds
"His-Sbp1-GFP (protein, UniProt P10080 1-294) MSAEIEEATNAVNNLSINDSEQQPRAPTHKTVIDPEDTIFIGNVAHECTEDDLKQLFVEEFGDEVSVEIPIKEHTDGHIPASKHALVKFPTKIDFDNIKENYDTKVVKDREIHIKRARTPGQMQRGGFRGRGGFRGRGGFRGGFRGGYRGGFRGRGNFRGRGGARGGFNGQKREKIPLDQMERSKDTLYINNVPFKATKEEVAEFFGTDADSISLPMRKMRDQHTGRIFTSDSANRGMAFVTFSGENVDIEAKAEEFKGKVFGDRELTVDVAVIRPENDEEEIEQETGSEEKQE",binding,[3],binds
same,binding,MBP-FUS-Flag-His,binds
"recombinant Sbp1 (protein, UniProt P10080 1-294) MSAEIEEATNAVNNLSINDSEQQPRAPTHKTVIDPEDTIFIGNVAHECTEDDLKQLFVEEFGDEVSVEIPIKEHTDGHIPASKHALVKFPTKIDFDNIKENYDTKVVKDREIHIKRARTPGQMQRGGFRGRGGFRGRGGFRGGFRGGYRGGFRGRGNFRGRGGARGGFNGQKREKIPLDQMERSKDTLYINNVPFKATKEEVAEFFGTDADSISLPMRKMRDQHTGRIFTSDSANRGMAFVTFSGENVDIEAKAEEFKGKVFGDRELTVDVAVIRPENDEEEIEQETGSEEKQE",binding,MBP-FUS-eGFP [4],binds
